# Experimental data from the supplement of paper PMC12067093, “Discovery and optimisation of a covalent ligand for TRIM25 and its application to targeted protein ubiquitination” (Chemical Science, 2025).
# The list shows a part of the results.
# Compound: CC1Cc2ccccc2N1C(=O)C1CCCN(C1)C(=O)CCl (mixture of isomers) [TRIM25 ligand 11 (diastereomer mixture)]
# Assay: probe-labelled cysteine peptide fold change vs DMSO (competition) (log2 fold change); higher = less target engagement (more negative = stronger competition)
# Settings: 10 µM; THP-1; incubation time: 4 h
# 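Further: competitive chemoproteomic profiling in live THP-1 cells with an iodoacetamide desthiobiotin (IA-DTB) probe, comparing probe-labelled peptide intensities in compound-treated cells against DMSO-treated controls.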
row,Target,probe-labelled cysteine peptide fold change
1,BAZ1A_Q9NRL2_404_PREDMECDDLK (UniProt Q9NRL2),-0.115
2,BPGM_P07738_23_FCSWVDQK (UniProt P07738),-0.0584
3,ATRX_P46100_220_DSDGMDEQCR (UniProt P46100),-0.165
4,BABAM2_Q9NXR7_245+254_IEHALGGSSALHIPAFPGGGCLIDYVPQVCHLLTNK (UniProt Q9NXR7),0.114
5,BOD1L1_Q8NFC6_2694_NGEILAPPESLCGGKPSGIAELQR (UniProt Q8NFC6),-0.201
6,BIRC6_Q9NR09_4813+4828_LPCPEGLDPDTDDAPEVCR (UniProt Q9NR09),0.483
7,BAZ2A_Q9UIF9_1037_SEVEMEGPEECLGR (UniProt Q9UIF9),-0.337
8,BIRC6_Q9NR09_566_HQEQHNIPFPCLLAGGLLTYK (UniProt Q9NR09),-0.0515
9,BAZ1A_Q9NRL2_893+898_WCFYSSCEQLDQLIEALNSR (UniProt Q9NRL2),0.0252
10,BCAT1_P54687_338_EMFGSGTACVVCPVSDILYK (UniProt P54687),0.15
11,ATXN10_Q9UBB4_134_CGLQFLGNIASR (UniProt Q9UBB4),0.0956
12,BPTF_Q12830_1241_EGCQSDSMR (UniProt Q12830),-0.0339
13,BAZ1B_Q9UIG0_1213_AFHLFCLR (UniProt Q9UIG0),-0.0578
14,AZI2_Q9H6S1_10_MDALVEDDICILNHEK (UniProt Q9H6S1),-0.0982
15,BAZ1B_Q9UIG0_1348_CEEILHK (UniProt Q9UIG0),0.0165
16,AURKB_Q96GD4_191_TATIMEELADALMYCHGKK (UniProt Q96GD4),-0.412

# Reformatted bar-delimited: entries from further up
row | Target | probe-labelled cysteine peptide fold change
2 | BPGM_P07738_23_FCSWVDQK (UniProt P07738) | -0.0584
3 | ATRX_P46100_220_DSDGMDEQCR (UniProt P46100) | -0.165
